Measurements reported in PubChem BioAssay AID1259308 (NCATS, 2017).

- Aim: 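Knock-downs that increase output of a recombinant reporter protein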 (primary screen)
- System: human HEK293 embryonic kidney cells stably expressing firefly luciferase (HEK-CMV-Luc2-Hygro)
- Reagent: single siRNA against human genes, 0.8 pmol siRNA per well
- Duration: 72 h
- Read-out: 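Reporter luminescence and viable-cell signal on separate replicate plates, given as percent of non-targeting control and median/MAD z-scores, plus per-cell luciferase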
- Direction: total luciferase, z-score and total luciferase, % of control: higher = more reporter protein produced; luciferase per cell, z-score: higher = more reporter output per viable cell; viable cells, % of control: higher = more viable cells
- Hit rule: 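An siRNA counts as active if its total luciferase robust z-score exceeds 3; genes with two or more such siRNAs out of three were retested with fresh siRNAs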
- Meaning of the calls: active = raised luciferase; inactive = no rise
In all, the deposit lists about 59,000 reagents; this is a random part of them. About 1,510 of all reagents (2.6%) were called active. 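Calls use total luciferase alone and ignore viability, so some active siRNAs may act by altering cell number.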 Reagents against one gene are numbered here.

| Target gene | reagent no. | total luciferase, z-score | total luciferase, % of control | luciferase per cell, z-score | viable cells, % of control | Outcome |
| --- | --- | --- | --- | --- | --- | --- |
| SMG5 | 1 | -0.518 | 71.6 | -0.303 | 86.6 | inactive |
| SMG5 | 2 | -0.103 | 79.8 | -0.464 | 101 | inactive |
| SMG5 | 3 | 1.15 | 105 | 0.409 | 105 | inactive |
| ABCA10 | 1 | -1.46 | 52.8 | -0.787 | 72.6 | inactive |
| ABCA10 | 2 | -1.23 | 57.4 | -0.732 | 77.8 | inactive |
| ABCA10 | 3 | -1.18 | 58.4 | -1.2 | 89.5 | inactive |
| IARS2P1 | 1 | 0.614 | 94.1 | 0.829 | 84.5 | inactive |
| IARS2P1 | 2 | 2.03 | 122 | 2.07 | 79.3 | inactive |
| IARS2P1 | 3 | -1.02 | 61.5 | -0.368 | 75.7 | inactive |
| PAQR9 | 1 | 0.701 | 95.8 | 0.431 | 95.6 | inactive |
| PAQR9 | 2 | 0.164 | 85.1 | 0.192 | 90.5 | inactive |
| PAQR9 | 3 | 0.168 | 85.2 | -0.215 | 101 | inactive |
| SLC4A3 | 1 | -0.485 | 72.2 | -1.16 | 110 | inactive |
| SLC4A3 | 2 | -1.65 | 49.1 | -2.1 | 95.5 | inactive |
| SLC4A3 | 3 | -0.157 | 78.8 | -0.273 | 94.6 | inactive |
| ARFGEF1 | 1 | 1.63 | 114 | 0.816 | 103 | inactive |
| ARFGEF1 | 2 | 0.143 | 84.7 | -0.153 | 98.6 | inactive |
| ARFGEF1 | 3 | -1 | 61.9 | -0.081 | 70.7 | inactive |
| GMNN | 1 | -0.416 | 73.6 | -0.353 | 90.3 | inactive |
| GMNN | 2 | -0.733 | 67.3 | -0.617 | 88.5 | inactive |
| GMNN | 3 | 0.273 | 87.3 | 0.546 | 84.5 | inactive |
| OSBP2 | 1 | 3.42 | 150 | 3.15 | 73 | active |
| OSBP2 | 2 | 0.75 | 96.8 | 0.559 | 93.3 | inactive |
| OSBP2 | 3 | 0.784 | 97.5 | 0.966 | 84.5 | inactive |
| LDLRAD2 | 1 | 3.43 | 150 | 3.24 | 71.5 | active |
| LDLRAD2 | 2 | 1.41 | 110 | 1.14 | 91.1 | inactive |
| LDLRAD2 | 3 | 0.0852 | 83.6 | -0.0204 | 93.9 | inactive |
| MTX3 | 1 | -0.726 | 67.4 | -0.78 | 92.5 | inactive |
| MTX3 | 2 | 0.737 | 96.6 | 1.55 | 71.8 | inactive |
| MTX3 | 3 | 3.82 | 158 | 2.95 | 81.2 | active |
| TBCB | 1 | 0.395 | 89.7 | -0.073 | 102 | inactive |
| TBCB | 2 | -1.36 | 54.9 | -0.128 | 63.4 | inactive |
| TBCB | 3 | -2.29 | 36.3 | -2.5 | 78.2 | inactive |
| MARCHF10 | 1 | 0.48 | 91.4 | -0.162 | 107 | inactive |
| MARCHF10 | 2 | 1.77 | 117 | 2.08 | 75.8 | inactive |
| MARCHF10 | 3 | 0.118 | 84.2 | 0.653 | 79.2 | inactive |
| CLUH | 1 | 0.189 | 85.7 | -0.451 | 108 | inactive |
| CLUH | 2 | -2 | 42 | -2.36 | 87.3 | inactive |
| CLUH | 3 | 3.79 | 157 | 2.29 | 96.1 | active |
| DUSP8 | 1 | -1.16 | 58.8 | -1.58 | 99.5 | inactive |
| DUSP8 | 2 | 0.132 | 84.5 | 0.00559 | 94.3 | inactive |
| DUSP8 | 3 | -1.76 | 46.8 | -1.94 | 87 | inactive |
| HSPB9 | 1 | -1.04 | 61.3 | -1.55 | 103 | inactive |
| HSPB9 | 2 | 1.86 | 119 | 1.87 | 81.1 | inactive |
| HSPB9 | 3 | -1.98 | 42.5 | -0.809 | 58.8 | inactive |
| TMEM248 | 1 | -1.07 | 60.6 | -1.27 | 94.7 | inactive |
| TMEM248 | 2 | 0.0455 | 82.8 | 0.637 | 78.2 | inactive |
| TMEM248 | 3 | 0.182 | 85.5 | -0.152 | 99.5 | inactive |
| C3 | 1 | -0.795 | 66.1 | -0.563 | 85.6 | inactive |
| C3 | 2 | -1.29 | 56.2 | -0.846 | 78.5 | inactive |
| C3 | 3 | -0.42 | 73.5 | -0.328 | 89.6 | inactive |
| MTR | 1 | -0.528 | 71.4 | -0.538 | 91.9 | inactive |
| MTR | 2 | 0.223 | 86.3 | -0.199 | 102 | inactive |
| MTR | 3 | 2.02 | 122 | 0.888 | 108 | inactive |
| INS | 1 | -1.31 | 55.8 | -1.52 | 92.8 | inactive |
| INS | 2 | -0.951 | 63 | -0.388 | 77.9 | inactive |
| INS | 3 | 0.295 | 87.8 | 0.176 | 93.6 | inactive |
| TIMM22 | 1 | 1.77 | 117 | 2.63 | 65.4 | inactive |
| TIMM22 | 2 | 0.928 | 100 | 0.186 | 107 | inactive |
| TIMM22 | 3 | 0.27 | 87.3 | 0.509 | 85.3 | inactive |
| FAM186A | 1 | -0.644 | 69.1 | -0.577 | 89.9 | inactive |
| FAM186A | 2 | -1.32 | 55.6 | -1.07 | 82.4 | inactive |
| FAM186A | 3 | 0.878 | 99.4 | 0.813 | 89.6 | inactive |
| DLL4 | 1 | 0.595 | 93.7 | 1 | 80.4 | inactive |
| DLL4 | 2 | -0.304 | 75.8 | 0.339 | 77.5 | inactive |
| DLL4 | 3 | 0.904 | 99.9 | 1.07 | 84.3 | inactive |
| GDPD3 | 1 | -1.92 | 43.6 | -1.67 | 75.6 | inactive |
| GDPD3 | 2 | -0.568 | 70.6 | -0.744 | 96 | inactive |
| GDPD3 | 3 | 5.92 | 200 | 4.93 | 60.9 | active |
| ADAM12 | 1 | 5.1 | 183 | 2.51 | 106 | active |
| ADAM12 | 2 | -1.23 | 57.4 | -1.31 | 90.5 | inactive |
| ADAM12 | 3 | 0.647 | 94.8 | 0.272 | 98.6 | inactive |
| CRYZ | 1 | 2.02 | 122 | 2.58 | 69.2 | inactive |
| CRYZ | 2 | -0.464 | 72.7 | -1.01 | 106 | inactive |
| CRYZ | 3 | 0.234 | 86.5 | 0.254 | 90.5 | inactive |

Copied from the entries so far (6 entries):
| Target gene | reagent no. | total luciferase, z-score | total luciferase, % of control | luciferase per cell, z-score | viable cells, % of control | Outcome |
| --- | --- | --- | --- | --- | --- | --- |
| MTX3 | 2 | 0.737 | 96.6 | 1.55 | 71.8 | inactive |
| MTX3 | 3 | 3.82 | 158 | 2.95 | 81.2 | active |
| TBCB | 1 | 0.395 | 89.7 | -0.073 | 102 | inactive |
| TBCB | 2 | -1.36 | 54.9 | -0.128 | 63.4 | inactive |
| TBCB | 3 | -2.29 | 36.3 | -2.5 | 78.2 | inactive |
| MARCHF10 | 1 | 0.48 | 91.4 | -0.162 | 107 | inactive |
